The target of test [1] is T1, Frizzled-4 (Fz-4) (mouse (endogenous in Tep1)) (UniProt Q61088).
T1 sequence: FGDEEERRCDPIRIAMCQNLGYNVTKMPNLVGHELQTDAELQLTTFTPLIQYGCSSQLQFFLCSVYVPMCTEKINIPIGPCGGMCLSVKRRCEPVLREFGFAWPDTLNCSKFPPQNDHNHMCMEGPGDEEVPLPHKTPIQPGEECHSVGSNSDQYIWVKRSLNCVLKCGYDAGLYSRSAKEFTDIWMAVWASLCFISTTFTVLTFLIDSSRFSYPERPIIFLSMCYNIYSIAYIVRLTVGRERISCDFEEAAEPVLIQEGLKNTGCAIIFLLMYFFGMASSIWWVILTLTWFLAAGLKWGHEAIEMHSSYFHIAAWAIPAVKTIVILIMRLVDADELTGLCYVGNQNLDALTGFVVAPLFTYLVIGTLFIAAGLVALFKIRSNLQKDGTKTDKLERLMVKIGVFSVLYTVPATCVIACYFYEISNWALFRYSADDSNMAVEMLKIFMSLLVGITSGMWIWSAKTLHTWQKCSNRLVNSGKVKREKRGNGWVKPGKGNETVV
The experiment in a line: co-IP; Tep1 cells treated with control or Wnt-4 supernatants; cell lysates immunoprecipitated with anti-Fz-4 or anti-Fz-6 antibodies and protein G resin in the presence of protease and phosphatase inhibitors; blots probed for PKCδ and Dvl.

Test [2] deals with T2, Frizzled-6 (Fz-6) (mouse (endogenous in Tep1)) (UniProt Q61089).
T2 sequence: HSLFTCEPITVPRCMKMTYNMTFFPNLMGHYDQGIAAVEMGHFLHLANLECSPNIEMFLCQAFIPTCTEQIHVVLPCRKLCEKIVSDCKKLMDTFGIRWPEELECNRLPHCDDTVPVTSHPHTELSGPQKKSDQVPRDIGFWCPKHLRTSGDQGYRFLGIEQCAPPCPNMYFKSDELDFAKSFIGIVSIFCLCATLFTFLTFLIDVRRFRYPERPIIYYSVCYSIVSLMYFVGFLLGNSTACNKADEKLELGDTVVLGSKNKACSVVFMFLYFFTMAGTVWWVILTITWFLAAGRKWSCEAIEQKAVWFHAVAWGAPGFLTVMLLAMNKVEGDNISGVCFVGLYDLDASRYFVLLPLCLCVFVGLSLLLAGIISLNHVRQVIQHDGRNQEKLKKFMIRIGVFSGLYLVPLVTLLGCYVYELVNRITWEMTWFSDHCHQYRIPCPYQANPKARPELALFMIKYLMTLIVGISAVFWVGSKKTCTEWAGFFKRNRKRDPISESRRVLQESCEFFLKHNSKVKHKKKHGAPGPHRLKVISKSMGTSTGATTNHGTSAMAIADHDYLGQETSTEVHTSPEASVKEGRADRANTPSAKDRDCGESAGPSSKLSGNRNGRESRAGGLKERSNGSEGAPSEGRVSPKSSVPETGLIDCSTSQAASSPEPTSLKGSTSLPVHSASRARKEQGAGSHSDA
Described as above.

This note sets out measurements from PMC3146701.

No constants are given. Whether binding was seen depends on the method and setting. In cells and extracts the contact can be indirect. Some binding calls cover weakened binding; strength is not graded here.

Consider “protein kinase C delta (PKCδ) (from UniProt P28867-1 1-674) (enzyme)”, for which the binding entry in test [1] and in test [2] was “binds” each time.
